System: T98G cells
Test: Antitumor activity
Assay type: cell-based, human

## CN[C@H]1CCc2cc(OC)c(OC)c(OC)c2-c2ccc(OC)c(=O)cc21 [colcemide, reference compound]
72 h, at 10 μM
  Maximal killing (% ± SEM): 35.9% ± 6.4
read-out: Antitumor activity EC50, WST-1, 72 h
  EC50: 113 nM

From PMC6690746 (European journal of medicinal chemistry, 2018)
